According to the supplement of paper PMC10735217:
Where a name gives a salt, the structure may show the parent alone. This is one part of the list. Repeats in this data set agree poorly, so a single value says little.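 Human kidney-derived cells stably carry a construct in which eight TEAD-binding elements drive luciferase, measured by luminescence in a drug-repurposing library screen. A hit is any compound whose signal exceeds the plate mean by more than five robust Z scores.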

Test system: HEK293A TEAD-LUC reporter
Experiment: TEAD-luciferase reporter activity (YAP activation), robust Z score vs plate; higher = stronger YAP/TEAD activation
Conditions: 24 h

C[C@@H](NC(=O)c1ncnc(N)c1Cl)c1ncc(C(=O)Nc2cc(C(F)(F)F)c(Cl)cn2)s1
TEAD-luciferase reporter activity (compound concentration: 200 nM): inactive: -1.38
TEAD-luciferase reporter activity (compound concentration: 2 uM): inactive: -2
TEAD-luciferase reporter activity (compound concentration: 10 uM): inactive: -1.98

CC1(C)c2nc(-c3ccc(F)cc3)c(Nc3ccc(Cl)cc3)n2CCN1C(=O)CN
TEAD-luciferase reporter activity (compound concentration: 200 nM): inactive: -1.45
TEAD-luciferase reporter activity (compound concentration: 2 uM): inactive: -0.837
TEAD-luciferase reporter activity (compound concentration: 10 uM): inactive: 4.41

C[C@H](NCc1ccc(OCc2cccc(F)c2)cc1)C(N)=O [safinamide mesylate]
TEAD-luciferase reporter activity (compound concentration: 200 nM): inactive: -0.461
TEAD-luciferase reporter activity (compound concentration: 2 uM): inactive: 3.18
TEAD-luciferase reporter activity (compound concentration: 10 uM): inactive: 0.712

N#Cc1ccc(CN2CCC(N3Cc4ccccc4C3=O)CC2)cc1
TEAD-luciferase reporter activity (compound concentration: 200 nM): inactive: -1.75
TEAD-luciferase reporter activity (compound concentration: 10 uM): active: 6.39

Cc1cc(Nc2cc(CN3CCOCC3)c3nc(C)c(Cc4ccc(Cl)cc4F)n3n2)[nH]n1 [gandotinib]
TEAD-luciferase reporter activity (compound concentration: 200 nM): inactive: -2.13
TEAD-luciferase reporter activity (compound concentration: 2 uM): inactive: -2.54
TEAD-luciferase reporter activity (compound concentration: 10 uM): inactive: -1.9

CC(C(=O)O)c1ccc(C2CCCCC2)cc1 (stereo unspecified) [hexaprofen]
TEAD-luciferase reporter activity (compound concentration: 200 nM): inactive: 0.378
TEAD-luciferase reporter activity (compound concentration: 2 uM): inactive: -1.63
TEAD-luciferase reporter activity (compound concentration: 10 uM): inactive: 0.445

N[C@@H](Cc1cc(I)c(Oc2ccc(O)c(I)c2)c(I)c1)C(=O)O [liothyronine sodium]
TEAD-luciferase reporter activity (compound concentration: 2 uM): inactive: -1.68

N[C@@H](Cc1cc(I)c(Oc2ccc(O)c(I)c2)c(I)c1)C(=O)O [Liothyrionine]
TEAD-luciferase reporter activity (compound concentration: 200 nM): inactive: 0.236
TEAD-luciferase reporter activity (compound concentration: 10 uM): inactive: -1.52

O=C(NS(=O)(=O)c1ccc(Cl)cc1)c1ccc(Cl)cc1Cl
TEAD-luciferase reporter activity (compound concentration: 200 nM): inactive: 0.681
TEAD-luciferase reporter activity (compound concentration: 2 uM): inactive: 0.396
TEAD-luciferase reporter activity (compound concentration: 10 uM): inactive: 0.0535

CCc1cc(CC[C@]2(C3CCCC3)CC(O)=C(Cc3nc4nc(C)cc(C)n4n3)C(=O)O2)cc(CC)n1 [Filibuvir]
TEAD-luciferase reporter activity (compound concentration: 200 nM): inactive: -1.8
TEAD-luciferase reporter activity (compound concentration: 2 uM): inactive: 0.772
TEAD-luciferase reporter activity (compound concentration: 10 uM): inactive: 0.623

CC1(CN)Cc2ccccc2C1
TEAD-luciferase reporter activity (compound concentration: 200 nM): inactive: 3.83
TEAD-luciferase reporter activity (compound concentration: 2 uM): inactive: -2.39
TEAD-luciferase reporter activity (compound concentration: 10 uM): inactive: 0.232

C=C[C@H]1CN2CCC1C[C@@H]2[C@@H](O)c1ccnc2ccc(OC)cc12 (stereo partly specified) [Quinidine]
TEAD-luciferase reporter activity (compound concentration: 200 nM): inactive: 1.77
TEAD-luciferase reporter activity (compound concentration: 2 uM): inactive: -0.0658
TEAD-luciferase reporter activity (compound concentration: 10 uM): inactive: 4.22

CCN(CCO)CCCOc1ccc2c(Nc3cc(CC(=O)Nc4cccc(F)c4)[nH]n3)ncnc2c1 [Barasertib-HQPA]
TEAD-luciferase reporter activity (compound concentration: 200 nM): inactive: -1.06
TEAD-luciferase reporter activity (compound concentration: 2 uM): inactive: -1.3
TEAD-luciferase reporter activity (compound concentration: 10 uM): inactive: 0.922

O=C(O)c1ccc(Oc2ccc3c(c2)COB3O)c(O)c1
TEAD-luciferase reporter activity (compound concentration: 200 nM): inactive: 0.419
TEAD-luciferase reporter activity (compound concentration: 2 uM): inactive: 1.18
TEAD-luciferase reporter activity (compound concentration: 10 uM): inactive: 1.87

O=C1C=CN(c2c(F)cc(N3C[C@H](CNc4ccon4)OC3=O)c(F)c2F)CC1
TEAD-luciferase reporter activity (compound concentration: 200 nM): inactive: 2.09
TEAD-luciferase reporter activity (compound concentration: 2 uM): inactive: 0.477
TEAD-luciferase reporter activity (compound concentration: 10 uM): inactive: 0.167

COc1cc2nc(N3CCN(C(=O)c4ccco4)CC3)nc(N)c2cc1OC [Prazosin]
TEAD-luciferase reporter activity (compound concentration: 200 nM): inactive: -3.49
TEAD-luciferase reporter activity (compound concentration: 10 uM): inactive: 1.71

COc1cc2nc(N3CCN(C(=O)c4ccco4)CC3)nc(N)c2cc1OC [prazosin]
TEAD-luciferase reporter activity (compound concentration: 2 uM): inactive: 0.238

CSc1ccccc1N(Cc1cccc(C(F)(F)F)c1)C(=O)CN(CCN(C)C)C(=O)OCC(C)C
TEAD-luciferase reporter activity (compound concentration: 200 nM): inactive: -0.743
TEAD-luciferase reporter activity (compound concentration: 2 uM): inactive: -0.203
TEAD-luciferase reporter activity (compound concentration: 10 uM): inactive: 2.02

CN(C)CCC(Oc1ccc2c(c1)C(=O)CC(c1ccccc1)O2)c1ccccc1 (stereo unspecified)
TEAD-luciferase reporter activity (compound concentration: 200 nM): inactive: 1.04
TEAD-luciferase reporter activity (compound concentration: 2 uM): inactive: -1.19
TEAD-luciferase reporter activity (compound concentration: 10 uM): inactive: -1.16

Fc1cnc(Cl)nc1NCc1ccc(CNc2ccnc(NCCN3CCOCC3)n2)cc1
TEAD-luciferase reporter activity (compound concentration: 200 nM): inactive: -0.63
TEAD-luciferase reporter activity (compound concentration: 2 uM): inactive: -0.542
TEAD-luciferase reporter activity (compound concentration: 10 uM): inactive: -0.0234

CCCCC[C@H](O)/C=C/[C@@H]1[C@@H](C/C=C\CCCC(=O)OC(C)C)[C@@H](O)C[C@H]1O [PGF2alpha-IE]
TEAD-luciferase reporter activity (compound concentration: 200 nM): inactive: -1.91
TEAD-luciferase reporter activity (compound concentration: 2 uM): inactive: 0.553
TEAD-luciferase reporter activity (compound concentration: 10 uM): active: 10.3

CC(C)(C)c1cc(C2CCCCC2)ccc1OC(=O)c1ccccn1
TEAD-luciferase reporter activity (compound concentration: 200 nM): inactive: 0.99
TEAD-luciferase reporter activity (compound concentration: 2 uM): inactive: 0.353
TEAD-luciferase reporter activity (compound concentration: 10 uM): inactive: -1.18

COc1cc2ncnc3c2cc1OCCCCCN(C)Cc1ccc(Br)cc1N3
TEAD-luciferase reporter activity (compound concentration: 200 nM): inactive: -0.576
TEAD-luciferase reporter activity (compound concentration: 2 uM): inactive: -0.392
TEAD-luciferase reporter activity (compound concentration: 10 uM): inactive: 1.3

O=C(c1ccccc1)N1CCC(C(=O)N2CCC(N3Cc4ccccc4C3=O)CC2)CC1
TEAD-luciferase reporter activity (compound concentration: 200 nM): inactive: -0.232
TEAD-luciferase reporter activity (compound concentration: 10 uM): inactive: 2.95

COc1c(N2CC[C@@H](C(C)(C)N)C2)ccc2c(=O)c(C(=O)O)cn(C3CC3)c12
TEAD-luciferase reporter activity (compound concentration: 200 nM): inactive: 0.048
TEAD-luciferase reporter activity (compound concentration: 2 uM): inactive: 0.654
TEAD-luciferase reporter activity (compound concentration: 10 uM): inactive: 0.66

COC(=O)[C@H](Cc1ccc(-c2ccccc2)cc1)NC(=O)c1ccc(-c2ccc(C(F)(F)F)cc2)cc1
TEAD-luciferase reporter activity (compound concentration: 200 nM): inactive: -0.546
TEAD-luciferase reporter activity (compound concentration: 2 uM): inactive: -0.903
TEAD-luciferase reporter activity (compound concentration: 10 uM): inactive: 0.159

CNC(=O)c1cc(Oc2ccc3nc(N[C@@H]4CCCC[C@H]4O)sc3c2)ccn1
TEAD-luciferase reporter activity (compound concentration: 200 nM): inactive: -0.979
TEAD-luciferase reporter activity (compound concentration: 2 uM): inactive: 1.77
TEAD-luciferase reporter activity (compound concentration: 10 uM): inactive: 2.07

CCN(CC)CC(=O)Nc1c(C)cc(C)cc1C [Trimecaine]
TEAD-luciferase reporter activity (compound concentration: 200 nM): inactive: 0.19
TEAD-luciferase reporter activity (compound concentration: 10 uM): inactive: -0.677

CCN(CC)CC(=O)Nc1c(C)cc(C)cc1C
TEAD-luciferase reporter activity (compound concentration: 2 uM): inactive: -1.56
